## Results of single-concentration screens

Source: ChEMBL document CHEMBL3988442, “University of Dundee, Small-Polar-MMV Screening Library” (2021).

Each number is a percent effect as filed. How 0% and 100% were set is not recorded. Most values in the screen are low, and negative values occur. Compounds were drawn at random from those tested, without regard to their results.

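Whole-parasite assay of Trypanosoma brucei over 72 hours; the read-out is not stated. Tested at 10 µM. Direction is inferred from retests: higher values go with stronger inhibition. Values scatter widely below zero; nearly all retest evidence comes from the higher of the two concentrations used. About 2,700 compounds were tested under these conditions; 0.51% (about 14) showed 50% or more at least once.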

With Fc1cc(CN2CCCC2Cn2cncn2)c2ncccc2c1 (stereo not shown) the screen gave -147.9%. For CCc1nccn1C1CCCN(C(=O)CCOCC(F)(F)F)C1 (stereo not shown) the result was -56.1%. With COc1ncccc1CNC(=O)Nc1cc(C)nn1C the screen gave 11.16%. For Cc1cnn(C2CCCN(C(=O)c3cc(Cl)c4c(c3)OCO4)C2)c1 (stereo not shown) the result was -33.49%. Cc1nc(C2CCCN2C(=O)Cn2cncn2)no1 (stereo not shown) read -23.38%. For CSC(C)C(=O)N(C)CCCc1cc(-c2ccccc2)no1 (stereo not shown) the result was -79.14%. Cc1ccoc1-c1nnc(CN2CCn3c(C)nnc3C2)o1 read -13.57%. Result for COc1ncccc1C(=O)N1CCCC(n2ccnc2)C1 (stereo not shown) was -12.48%.

OCC1CCCN1c1cc(NCc2ccsc2)ncn1 (stereo not shown) read -76.23%. COc1cc(C)nc(N2CCN(C(=O)CN(C)C(C)C)CC2)n1 gave -34.78%. For Cl.O=C(Nc1cccc(CNCc2cccs2)c1)C1CC1 the result was -25.65%. Cc1nc(C(=O)N2CCCC2c2c(C)nn(C)c2Cl)ccc1C#N (stereo not shown) read -54.95%. Result for Cc1cccc(-c2nc(CN3CCCC3Cn3cc(C)cn3)no2)c1 (stereo not shown) was -44.28%. With COCC(C)NC(=O)c1cc(C)n(-c2cccc(OC)c2)c1C (stereo not shown) the screen gave 3.23%. With CC(=O)NCCNC(=O)CN1CCCC(Cn2cncn2)C1 (stereo not shown) the screen gave -5.623%. CN(C)c1cc(CNC(=O)Nc2nnc(C3CC3)s2)ccn1 read -18.89%.

CNc1snc(C)c1C(=O)N1CCCC(n2ccnc2C)C1 (stereo not shown) gave -11.43%. With NC(=O)C1CCCN(c2ccc(CNC(=O)c3csnn3)cc2)C1 (stereo not shown) the screen gave 6.325%. With Cn1ccc(C(=O)NCc2ccc(CN3CCCCC3)cc2)cc1=O the screen gave -19.48%. Cc1cc(NC(=O)NCc2cccnc2OC2CCCC2)n(C)n1 gave 2.932%. For CCn1ccnc1CN1CCCN(C(=O)c2cnn(C)c2)CC1 the result was -73.43%. CCOc1ccccc1CNC1CCCN(Cc2noc(C)n2)C1 (stereo not shown) gave 15.51%. Result for Cc1cnn(CC2CCCN2Cc2c(C)noc2C)c1 (stereo not shown) was -11.98%. For CCn1ccnc1CN1CCCN(C(=O)c2cc[nH]n2)CC1 the result was -20.51%.

Result for COc1c(CNCc2ccnc(N3CCOCC3)c2)c(C)nn1C was -18.7%. Cc1cnn(CC2CCCN2Cc2noc(C(C)C)n2)c1 (stereo not shown) read -13.23%. For Cc1ccc(CNCC2CCN(CC(O)c3ccccc3)CC2)o1 (stereo not shown) the result was 51.2%. With CNS(=O)(=O)c1cccc(CNC(=O)c2cc(C)no2)c1 the screen gave -11.3%. With CCN1CCN(C2CCN(Cc3nc(C)c(C)o3)CC2)C1=O the screen gave -8.152%. With Cn1cc(CCNC(=O)NCc2ccc3c(c2)OCCO3)cn1 the screen gave -35.44%. Cc1ccc(CNC(=O)CN2CCCCC2Cn2cncn2)s1 (stereo not shown) read -31.02%. Cc1cnn(CC2CN(CC(=O)NCc3ccco3)CCO2)c1 (stereo not shown) gave 2.279%.

Result for Cc1cnn(CCNCC(O)COc2ccc(Cl)cc2Cl)c1 (stereo not shown) was -54.13%. With COc1ccc(OCCCNCCn2cccn2)cc1 the screen gave -35.33%. Cc1cnn(CC2CCCN2C(=O)c2csc(C3CC3)n2)c1 (stereo not shown) gave -51.72%. Result for O=C1C(NS(=O)(=O)c2ccc(F)cc2F)CCN1Cc1ccccc1 (stereo not shown) was -68.77%. With Cc1nc(CN2CCCC(Cn3cncn3)C2)nc2ccccc12 (stereo not shown) the screen gave -48.87%. CC(C)NC(=O)CCNC(=O)Nc1ccc(-n2cncn2)c(F)c1 read -56.86%. Cc1ccc(-c2noc(CN3CCCC(Cn4cncn4)C3)n2)cc1 (stereo not shown) read -3.971%. Cc1n[nH]c(C2CN(Cc3nnc(C4CCC4)o3)CCO2)n1 (stereo not shown) read -5.059%.

With CC(O)CN1CCC(CNCc2ccccc2Cl)CC1 (stereo not shown) the screen gave -55.12%. CCN(CC)CCn1c(NC(=O)c2scnc2C)nc2ccccc21 read 84.6%. For Cc1csc(N2CCN(C(=O)CCn3cccn3)CC2)n1 the result was -12.49%. Result for OC(CNCCn1cccn1)c1ccc(C(F)(F)F)cc1 (stereo not shown) was -32.05%. Cc1nccn1C1CCCN(C(=O)CCNc2ncccn2)C1 (stereo not shown) read -5.679%. With CC(C)CN1CC(C(=O)NCc2cccnc2-n2cccn2)CC1=O (stereo not shown) the screen gave -53.77%. CCCc1n[nH]c(C2CN(C(=O)c3ccnc(C4CC4)n3)CCO2)n1 (stereo not shown) gave -54.04%. CC(NC(=O)NCCCN(C(C)C)S(C)(=O)=O)c1ccncc1 (stereo not shown) read -28.9%.

Cc1ccc(OCCN2CCN(Cc3cnn(CCO)c3)CC2)cc1 gave -12.29%. CN(CCc1ccncc1)CC1CCCN1c1cccnn1 (stereo not shown) read -61.26%. For CC(C)=CCN1CCOC(Cn2cccn2)C1 (stereo not shown) the result was -32.93%. For Cc1nc(C)n(CC2CCCN2CCOc2ccccc2F)n1 (stereo not shown) the result was -61%. For Cc1ncc2c(n1)CN(Cc1nnc(-c3ccccc3)o1)CC2 the result was -32.03%. CC(C)c1nc(C2CCCN(C(=O)c3ccc4c(c3)COC4)C2)no1 (stereo not shown) gave -28.18%. For CC(C)C(C)(C#N)NC(=O)CN1CCC(c2ccnn2CCO)CC1 (stereo not shown) the result was -3.847%.

Repeated from the top, 3 entries:

structure	Percent Effect
Fc1cc(CN2CCCC2Cn2cncn2)c2ncccc2c1 (stereo not shown)	-147.9
CCc1nccn1C1CCCN(C(=O)CCOCC(F)(F)F)C1 (stereo not shown)	-56.1
COc1ncccc1CNC(=O)Nc1cc(C)nn1C	11.16